Assay results taken from PMC7862700.
This is a selection; strong and weak results do not stand in their true shares. For part of these data: At the low end of the ranking, values are background and their order means little. The list shows a part of the results. For part of these data: The exact form of the protein is not confirmed.

Sequences of proteins named here, by UniProt entry; tags and fusion partners are left off. A change or cut given only in a name is not applied to a line headed by its entry.
UniProt P32519: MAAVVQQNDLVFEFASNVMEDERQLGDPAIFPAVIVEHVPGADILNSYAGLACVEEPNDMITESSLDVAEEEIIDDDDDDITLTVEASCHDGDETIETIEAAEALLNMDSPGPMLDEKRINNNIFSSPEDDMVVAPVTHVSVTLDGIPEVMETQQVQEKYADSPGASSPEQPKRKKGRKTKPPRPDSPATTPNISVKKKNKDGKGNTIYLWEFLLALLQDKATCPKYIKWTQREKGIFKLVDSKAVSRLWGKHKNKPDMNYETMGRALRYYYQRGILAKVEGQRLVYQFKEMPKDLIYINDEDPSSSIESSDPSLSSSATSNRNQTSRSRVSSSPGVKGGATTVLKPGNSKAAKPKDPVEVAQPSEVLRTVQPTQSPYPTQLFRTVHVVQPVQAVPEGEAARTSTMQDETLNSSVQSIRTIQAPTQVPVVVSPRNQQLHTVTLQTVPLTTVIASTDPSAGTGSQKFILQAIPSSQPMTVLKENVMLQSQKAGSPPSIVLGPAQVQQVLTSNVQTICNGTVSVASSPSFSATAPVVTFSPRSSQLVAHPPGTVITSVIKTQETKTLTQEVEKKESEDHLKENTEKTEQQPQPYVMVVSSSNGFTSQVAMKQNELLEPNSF
UniProt P50549: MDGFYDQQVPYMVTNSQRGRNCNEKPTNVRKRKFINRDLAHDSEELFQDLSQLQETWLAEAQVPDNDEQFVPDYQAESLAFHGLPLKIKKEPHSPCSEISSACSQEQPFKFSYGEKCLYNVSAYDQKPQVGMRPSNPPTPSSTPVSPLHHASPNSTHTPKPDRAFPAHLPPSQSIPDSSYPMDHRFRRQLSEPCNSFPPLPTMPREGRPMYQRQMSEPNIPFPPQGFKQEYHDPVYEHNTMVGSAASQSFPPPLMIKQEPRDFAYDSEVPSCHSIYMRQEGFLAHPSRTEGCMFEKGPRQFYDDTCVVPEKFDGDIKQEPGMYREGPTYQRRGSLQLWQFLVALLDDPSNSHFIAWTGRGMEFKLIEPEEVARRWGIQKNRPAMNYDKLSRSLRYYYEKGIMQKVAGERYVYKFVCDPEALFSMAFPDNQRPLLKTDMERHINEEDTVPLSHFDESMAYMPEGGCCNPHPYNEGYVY

How the values were obtained:
Assay in all cases: DAPPL (digital affinity profiling via proximity ligation, sequencing)
Conditions in all cases: 10 mM Tris-HCl pH 7.5, 50 mM NaCl, 1 mM DTT, 4% glycerol, room temperature, 30 min; GST-TFs on glutathione beads, 16-mer random dsDNA library, 0.1% …; high values mean tight binding; double strand, one strand shown; scale: fold enrichment (6-mer frequency, TF over GST control)
[1] = target: T1, ERG (UniProt P11308)
T1 sequence: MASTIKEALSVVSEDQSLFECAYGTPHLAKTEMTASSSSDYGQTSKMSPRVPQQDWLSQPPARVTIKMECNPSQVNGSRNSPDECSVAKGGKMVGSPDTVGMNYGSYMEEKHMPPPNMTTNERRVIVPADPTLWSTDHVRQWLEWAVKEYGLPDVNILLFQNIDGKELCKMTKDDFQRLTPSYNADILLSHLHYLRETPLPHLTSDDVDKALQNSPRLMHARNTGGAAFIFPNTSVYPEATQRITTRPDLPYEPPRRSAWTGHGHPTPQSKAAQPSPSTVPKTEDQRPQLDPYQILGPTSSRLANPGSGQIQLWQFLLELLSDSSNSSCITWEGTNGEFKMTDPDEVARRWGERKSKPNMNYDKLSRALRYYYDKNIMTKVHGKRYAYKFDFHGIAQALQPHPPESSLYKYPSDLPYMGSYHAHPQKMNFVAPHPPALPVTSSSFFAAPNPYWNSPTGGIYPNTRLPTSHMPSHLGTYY

[2] = target: ELF1 (UniProt P32519)
[3] = target: T2, ELK4 (UniProt P28324-2)
T2 sequence: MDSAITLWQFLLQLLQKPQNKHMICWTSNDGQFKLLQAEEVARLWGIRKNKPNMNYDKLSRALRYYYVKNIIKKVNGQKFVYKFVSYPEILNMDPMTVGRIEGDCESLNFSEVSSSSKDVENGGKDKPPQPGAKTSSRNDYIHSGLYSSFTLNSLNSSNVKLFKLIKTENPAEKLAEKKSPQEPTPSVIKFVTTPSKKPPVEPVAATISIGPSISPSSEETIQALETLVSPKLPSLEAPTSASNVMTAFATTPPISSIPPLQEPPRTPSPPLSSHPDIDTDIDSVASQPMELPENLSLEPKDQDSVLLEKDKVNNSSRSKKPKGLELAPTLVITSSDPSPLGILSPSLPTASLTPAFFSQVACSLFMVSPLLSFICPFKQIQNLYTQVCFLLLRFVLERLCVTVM

[4] = target: T3, ETV4 (UniProt P43268)
T3 sequence: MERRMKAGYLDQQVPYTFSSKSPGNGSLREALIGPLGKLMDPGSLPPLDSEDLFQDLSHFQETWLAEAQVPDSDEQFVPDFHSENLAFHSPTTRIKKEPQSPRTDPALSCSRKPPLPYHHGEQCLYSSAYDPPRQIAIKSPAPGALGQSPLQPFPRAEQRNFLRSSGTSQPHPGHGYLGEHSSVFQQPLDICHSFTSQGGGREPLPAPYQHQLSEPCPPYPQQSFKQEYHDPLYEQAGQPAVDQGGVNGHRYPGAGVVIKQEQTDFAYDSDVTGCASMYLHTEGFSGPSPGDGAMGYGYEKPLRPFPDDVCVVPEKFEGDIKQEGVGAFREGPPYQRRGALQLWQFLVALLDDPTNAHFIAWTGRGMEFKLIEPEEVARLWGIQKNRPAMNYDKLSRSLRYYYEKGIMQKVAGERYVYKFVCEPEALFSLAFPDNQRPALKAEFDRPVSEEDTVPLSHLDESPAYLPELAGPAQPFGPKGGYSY

[5] = target: ETV1 (UniProt P50549)
[6] = target: T4, ERF (UniProt P50548)
T4 sequence: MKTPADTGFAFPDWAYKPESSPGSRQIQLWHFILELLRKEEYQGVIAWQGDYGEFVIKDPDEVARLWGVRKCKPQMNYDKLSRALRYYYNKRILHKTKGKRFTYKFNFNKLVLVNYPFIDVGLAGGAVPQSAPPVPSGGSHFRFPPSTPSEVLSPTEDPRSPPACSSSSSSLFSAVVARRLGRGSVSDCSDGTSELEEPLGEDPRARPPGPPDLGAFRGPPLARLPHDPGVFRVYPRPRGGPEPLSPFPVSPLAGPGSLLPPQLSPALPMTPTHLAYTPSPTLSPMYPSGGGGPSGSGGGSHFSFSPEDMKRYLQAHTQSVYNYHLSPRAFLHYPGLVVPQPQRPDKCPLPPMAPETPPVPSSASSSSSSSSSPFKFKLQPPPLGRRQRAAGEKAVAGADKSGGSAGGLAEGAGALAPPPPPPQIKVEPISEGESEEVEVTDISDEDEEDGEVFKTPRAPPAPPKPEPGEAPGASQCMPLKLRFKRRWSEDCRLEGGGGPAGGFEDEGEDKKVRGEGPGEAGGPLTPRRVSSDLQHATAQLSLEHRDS

Row | Sequence | binding signal [1] | binding signal [2] | binding signal [3] | binding signal [4] | binding signal [5] | binding signal [6]
1 | GGGGAT | 0.672 | 0.675 | 0.66 | 0.67 | 0.71 | 0.675
2 | TGGAGC | 0.643 | 0.642 | 0.654 | 0.604 | 0.702 | 0.563
3 | GTGAGC | 0.378 | 0.396 | 0.434 | 0.378 | 0.351 | 0.396
4 | GGGCAA | 0.893 | 0.873 | 0.892 | 0.903 | 0.864 | 0.979
5 | TCAGAG | 0.76 | 0.691 | 0.774 | 0.745 | 0.756 | 0.775
6 | CGTGCT | 0.821 | 0.794 | 0.928 | 0.879 | 0.888 | 0.902
7 | CGTCAG | 0.854 | 0.854 | 0.907 | 0.908 | 0.879 | 0.783
8 | CGGGCC | 0.679 | 0.75 | 0.775 | 0.725 | 0.837 | 0.727
9 | GTGCGT | 0.603 | 0.604 | 0.624 | 0.62 | 0.571 | 0.683
10 | GTGGGC | 0.734 | 0.755 | 0.61 | 0.748 | 0.708 | 0.767
11 | GGGGCC | 0.602 | 0.565 | 0.608 | 0.583 | 0.544 | 0.584
12 | GACGTG | 0.313 | 0.334 | 0.345 | 0.349 | 0.348 | 0.358
13 | CCATGA | 0.81 | 0.844 | 1 | 0.884 | 0.817 | 0.915
14 | GACGGG | 0.415 | 0.43 | 0.422 | 0.403 | 0.45 | 0.462
15 | AAAGGA | 0.941 | 0.847 | 0.783 | 0.834 | 0.889 | 0.887
16 | GAGGGT | 0.542 | 0.558 | 0.632 | 0.525 | 0.557 | 0.559
17 | ACGCAT | 0.759 | 0.835 | 0.777 | 0.851 | 0.798 | 0.876
18 | GAACCG | 0.77 | 0.691 | 0.69 | 0.698 | 0.748 | 0.728
19 | AGAGTC | 0.447 | 0.438 | 0.538 | 0.426 | 0.474 | 0.471
20 | ACGTGA | 0.259 | 0.277 | 0.286 | 0.259 | 0.249 | 0.287

Row | Sequence | binding signal [1] | binding signal [2] | binding signal [3] | binding signal [4] | binding signal [5] | binding signal [6]
21 | GAGACA | 0.387 | 0.396 | 0.41 | 0.364 | 0.369 | 0.388
22 | CACAGT | 0.705 | 0.793 | 0.89 | 0.683 | 0.735 | 0.772
23 | CGTTAG | 0.858 | 0.849 | 0.854 | 0.843 | 0.743 | 0.786
24 | GGTAGG | 0.642 | 0.613 | 0.667 | 0.621 | 0.647 | 0.63
25 | CCCGTG | 0.577 | 0.508 | 0.672 | 0.574 | 0.572 | 0.617
26 | GCATAG | 0.801 | 0.749 | 0.766 | 0.85 | 0.775 | 0.844
27 | GACGTC | 0.945 | 0.827 | 0.778 | 0.842 | 0.853 | 0.896
28 | GGCAGA | 0.603 | 0.6 | 0.69 | 0.663 | 0.67 | 0.662
29 | CAGGGT | 0.854 | 0.848 | 0.848 | 0.849 | 0.875 | 0.897
30 | GAGCGA | 0.639 | 0.657 | 0.631 | 0.612 | 0.655 | 0.673
31 | ACGGGA | 0.574 | 0.501 | 0.543 | 0.525 | 0.524 | 0.491
32 | GCTGGG | 0.759 | 0.856 | 0.911 | 0.852 | 0.726 | 0.802
33 | GCTCGG | 0.692 | 0.79 | 0.661 | 0.77 | 0.922 | 0.804
34 | GGTCGC | 0.812 | 0.825 | 0.796 | 0.863 | 0.935 | 0.877
35 | CCGTGA | 0.182 | 0.168 | 0.21 | 0.17 | 0.189 | 0.193
36 | GGTACG | 0.793 | 0.849 | 0.734 | 0.84 | 0.775 | 0.805
37 | GATGAG | 0.796 | 0.868 | 0.797 | 0.833 | 0.766 | 0.838
38 | GGGGTG | 0.668 | 0.696 | 0.636 | 0.634 | 0.584 | 0.749
39 | GCATGA | 0.807 | 0.859 | 0.758 | 0.89 | 0.778 | 0.773
40 | TGTAGT | 0.907 | 0.907 | 0.97 | 0.86 | 0.945 | 0.89

Row | Sequence | binding signal [1] | binding signal [2] | binding signal [3] | binding signal [4] | binding signal [5] | binding signal [6]
41 | ACAGAG | 0.711 | 0.78 | 0.76 | 0.739 | 0.761 | 0.804
42 | AAGACC | 0.907 | 0.819 | 0.858 | 0.904 | 0.854 | 0.881
43 | GTGGGG | 0.57 | 0.573 | 0.633 | 0.595 | 0.563 | 0.623
44 | GGTGAC | 0.779 | 0.831 | 0.736 | 0.858 | 0.805 | 0.688
45 | GGCCAT | 0.852 | 0.824 | 0.869 | 0.904 | 0.836 | 0.968
46 | GGGTGA | 0.643 | 0.627 | 0.663 | 0.598 | 0.623 | 0.63
47 | CAGTCA | 0.493 | 0.499 | 0.463 | 0.472 | 0.542 | 0.561
48 | AGTGTG | 0.72 | 0.682 | 0.836 | 0.654 | 0.781 | 0.609
49 | CCAGGG | 0.623 | 0.599 | 0.625 | 0.636 | 0.582 | 0.603
50 | CAGCCA | 0.814 | 0.855 | 0.924 | 0.803 | 0.79 | 0.837
51 | GGACGA | 0.637 | 0.629 | 0.573 | 0.643 | 0.614 | 0.687
52 | GGGCGG | 0.466 | 0.43 | 0.475 | 0.411 | 0.402 | 0.434
53 | AGCGGT | 0.772 | 0.672 | 0.803 | 0.69 | 0.716 | 0.726
54 | CACGGG | 0.778 | 0.755 | 0.915 | 0.818 | 0.784 | 0.767
55 | GTCGGA | 0.187 | 0.168 | 0.134 | 0.158 | 0.153 | 0.144
56 | GACTGG | 0.622 | 0.669 | 0.73 | 0.594 | 0.677 | 0.682
57 | GCGGGC | 0.744 | 0.781 | 0.763 | 0.784 | 0.752 | 0.828
58 | TCGGGG | 0.451 | 0.413 | 0.403 | 0.439 | 0.412 | 0.394
59 | AGAGCC | 0.674 | 0.74 | 0.682 | 0.757 | 0.751 | 0.763
60 | GAGGTA | 0.644 | 0.657 | 0.59 | 0.703 | 0.658 | 0.69

A section of the results above, for reference:
Row | Sequence | binding signal [1] | binding signal [2] | binding signal [3] | binding signal [4] | binding signal [5] | binding signal [6]
44 | GGTGAC | 0.779 | 0.831 | 0.736 | 0.858 | 0.805 | 0.688
45 | GGCCAT | 0.852 | 0.824 | 0.869 | 0.904 | 0.836 | 0.968
46 | GGGTGA | 0.643 | 0.627 | 0.663 | 0.598 | 0.623 | 0.63
47 | CAGTCA | 0.493 | 0.499 | 0.463 | 0.472 | 0.542 | 0.561
48 | AGTGTG | 0.72 | 0.682 | 0.836 | 0.654 | 0.781 | 0.609
49 | CCAGGG | 0.623 | 0.599 | 0.625 | 0.636 | 0.582 | 0.603
50 | CAGCCA | 0.814 | 0.855 | 0.924 | 0.803 | 0.79 | 0.837
51 | GGACGA | 0.637 | 0.629 | 0.573 | 0.643 | 0.614 | 0.687
52 | GGGCGG | 0.466 | 0.43 | 0.475 | 0.411 | 0.402 | 0.434
53 | AGCGGT | 0.772 | 0.672 | 0.803 | 0.69 | 0.716 | 0.726
54 | CACGGG | 0.778 | 0.755 | 0.915 | 0.818 | 0.784 | 0.767
55 | GTCGGA | 0.187 | 0.168 | 0.134 | 0.158 | 0.153 | 0.144
56 | GACTGG | 0.622 | 0.669 | 0.73 | 0.594 | 0.677 | 0.682
57 | GCGGGC | 0.744 | 0.781 | 0.763 | 0.784 | 0.752 | 0.828
